Source: PubChem BioAssay AID1439 (NMMLSC, 2008)
Out of some 220,000 compounds screened, about 770 (0.35%) were called active. The inconclusive results got no clear call from the source; some entries with a clear call stand among them for comparison. Cut-off read from the data, not from the text of the source: active = binding response below about 49% or above about 150%; inconclusive = no clear call, values can overlap the other calls; inactive = in between.

Sequences of proteins named here, by UniProt entry; tags and fusion partners are left off.
UniProt P09471, whole entry, looked up: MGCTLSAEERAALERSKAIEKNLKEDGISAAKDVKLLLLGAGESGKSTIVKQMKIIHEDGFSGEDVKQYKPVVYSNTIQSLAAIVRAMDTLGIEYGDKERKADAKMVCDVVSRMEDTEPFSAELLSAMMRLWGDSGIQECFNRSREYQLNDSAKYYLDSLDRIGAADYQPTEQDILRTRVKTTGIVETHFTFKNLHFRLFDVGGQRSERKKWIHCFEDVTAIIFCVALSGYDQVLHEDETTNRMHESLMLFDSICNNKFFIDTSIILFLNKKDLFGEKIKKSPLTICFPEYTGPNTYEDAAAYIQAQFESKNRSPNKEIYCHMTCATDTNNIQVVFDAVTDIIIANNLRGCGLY

Molecular target: Guanine nucleotide-binding protein G(o) subunit alpha (Homo sapiens) (UniProt P09471)
Assay: compounds changing RGS7 association with Galphao – biochemical, multiplexed bead flow cytometry, primary screen (AID 1439);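 note: fluorescent Galphao held in activated GDP-AlF4 state binding bead-coupled RGS7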
Conditions: at 10 µM, actives lie on both sides

Row | SMILES | binding response (% of control)
1 | O=C(CN1CC=C(c2ccccc2)CC1)Nc1cc(Cl)ccc1Cl | inactive: 104%
2 | O=C(O)Cn1cc(/C=C2\C(=O)NC(=O)N(Cc3ccco3)C2=O)c2ccccc21 | inconclusive: 95.3%
3 | Cc1cccc(N2C(=O)NC(=O)/C(=C\c3ccc4c(c3)CCCN4Cc3ccccc3)C2=O)c1 | inactive: 100%
4 | OCC[n+]1c2ccccc2nc2ccc(N3CCOCC3)cc21 | inconclusive: 14.2%
5 | O=C(Nc1ccc(F)cc1F)c1cccn(Cc2ccccc2)c1=O | inconclusive: 93.2%
6 | Cc1cc(OC(=O)c2cccs2)c2c3c(c(=O)oc2c1)CCCC3 | inactive: 98.1%
7 | CCOC(=O)C(C)(CC)NC(=O)CSP(=S)(OCC)OCC (configuration not stated) | inactive: 99.1%
8 | CCN(c1ccc(C(O)(C(=O)OC)C(F)(F)F)cc1)S(=O)(=O)c1ccc(C)cc1 (configuration not stated) | inactive: 104%
9 | Cc1nonc1OCCNCCNc1ccc([N+](=O)[O-])c2cccnc12 | inactive: 99.9%
10 | NCCc1ccc(S(N)(=O)=O)cc1 | inconclusive: 115%
11 | CC(=O)Cc1ccc(OC(C)C)cc1 | inconclusive: 85.8%
12 | Cc1c(P(=S)(c2ccccc2)c2ccccc2)[n+]2ccccc2n1C | inconclusive: 101%
13 | O=[N+]([O-])c1ccc(N2CCCNCC2)c2ncccc12 | inconclusive: -218%
14 | O=c1[nH]c(=S)n(C2CC2)c(O)c1C=Nc1ccc2c(c1)OCO2 | inconclusive: 67.7%
15 | CN(c1ccc(OCC(=O)N2CCN(C/C=C/c3ccccc3)CC2)cc1)S(=O)(=O)c1cccs1 | inconclusive: 241%
16 | O=C(CF)NC(NC(=S)Nc1ccccc1O)C(Cl)(Cl)Cl (configuration not stated) | inactive: 101%
17 | C[n+]1c(-c2ccccc2)cc(CCCCc2cc(-c3ccccc3)[n+](C)c(-c3ccccc3)c2)cc1-c1ccccc1 | inconclusive: 113%
18 | O=C1CC(c2ccccc2)CN1 (configuration not stated) | inconclusive: 76.1%
19 | Nc1cc2nc3ccccc3nc2cc1N | inconclusive: 114%
20 | COc1cccc(N2C(=O)NC(=O)/C(=C\c3ccc([N+](=O)[O-])s3)C2=O)c1 | inconclusive: 49.4%
21 | S=P(Nn1cnnc1)(c1ccccc1)c1ccccc1 | inconclusive: 84.7%
22 | CCCCn1c(O)c(/C=C2/C=CC=N2)c(=O)[nH]c1=O | inconclusive: 110%
23 | Cc1onc(-c2c(Cl)cccc2Cl)c1/C(N)=N/OC(=O)N(C)C | inconclusive: 125%

Row | SMILES | binding response (% of control)
24 | CCCCn1nc(C)c(C(=O)O)c1Cl | inconclusive: 117%
25 | C=CCn1c(O)c(C(CC)=Nc2ccc3c(c2)CCC3)c(=O)[nH]c1=O | inconclusive: 120%
26 | COc1ccc(CCn2c(O)c(/C=N/N3CCOCC3)c(=O)[nH]c2=O)cc1OC | inconclusive: 93.4%
27 | Cc1ccc(OCCn2cccc2/C=C2/C(=O)NC(=O)N(Cc3ccco3)C2=O)cc1 | inconclusive: 134%
28 | Cc1cc(C(=O)Nc2ccccc2)nn1C(C)(C)C | inconclusive: 167%
29 | CN1CCN(c2ncnc3c2cnn3C)CC1 | inconclusive: 39.2%
30 | CC1(C)CSC(=NCc2ccccc2)N1 | inconclusive: 101%
31 | Cc1nc(SCc2c(Cl)cccc2Cl)nc(OC(=O)N(C)C)c1C | inconclusive: 112%
32 | Cc1cc(C)c2c(c1)-c1cc(C)nn1C(c1cccnc1)N2 (configuration not stated) | inactive: 103%
33 | CN(C)P(=NC(=S)c1cccn1C)(N(C)C)N(C)C | inactive: 116%
34 | NC(=O)CS(=O)C(c1ccccc1)c1ccccc1 (configuration not stated) | inactive: 110%
35 | CC(=O)Nc1ccc([As](=O)(O)c2ccc([N+](=O)[O-])cc2)cc1 | inconclusive: 41.7%
36 | Cn1c(O)c(C=NCCc2c[nH]c3ccccc23)c(=O)n(C)c1=O | inactive: 108%
37 | CCCCn1c(O)c(C(=O)/C=C/c2ccc3c(c2)OCO3)c(=O)[nH]c1=O | inconclusive: 53.4%
38 | CCC(=NCCN1CCOCC1)c1c(O)n(C2CCCCC2)c(=O)[nH]c1=O | inconclusive: 96.6%
39 | Cc1nn(-c2ccccc2)c(Cl)c1C1C(C#N)=C(N)Oc2c1c(=O)oc1ccccc21 (configuration not stated) | inactive: 99.6%
40 | CC(=NCCC1=CCCCC1)c1c(O)n(-c2ccccc2)c(=O)[nH]c1=O | inconclusive: 438%
41 | CC(=NCCCn1ccnc1)c1c(O)n(-c2ccccc2)c(=O)[nH]c1=O | inconclusive: 102%
42 | Cc1ccccc1-n1c(O)c(/C=N/NC(=O)c2ccncc2)c(=O)[nH]c1=O | inconclusive: 72%
43 | COC(=O)C(O)(c1ccc(NC(=O)NC2CCCCC2)cc1)C(F)(F)F (configuration not stated) | active: 157% [activator]
44 | Cc1ccc(-n2c(O)c(C=NCCCn3ccnc3)c(=O)[nH]c2=O)cc1 | inconclusive: 71.4%
45 | O=C(c1c[nH]cc1-c1ccccc1)c1cccc2ccccc12 | inactive: 101%
46 | C1CC2NCCC3NCCC(N1)N32 (configuration not stated) | inconclusive: 96.2%

Single entries from the list:
In binding response (% of control), Cn1c(O)c(C=NCCc2c[nH]c3ccccc23)c(=O)n(C)c1=O is listed with inactive: 108%
In binding response (% of control), O=C(c1c[nH]cc1-c1ccccc1)c1cccc2ccccc12 is listed with inactive: 101%
In binding response (% of control), Cc1nc(SCc2c(Cl)cccc2Cl)nc(OC(=O)N(C)C)c1C is listed with inconclusive: 112%
In binding response (% of control), Cc1cc(C)c2c(c1)-c1cc(C)nn1C(c1cccnc1)N2 (configuration not stated) is listed with inactive: 103%

(next part)

Row | SMILES | binding response (% of control)
47 | O=S(=O)(c1ccccc1)N1CC1c1ccccc1 (configuration not stated) | inactive: 93.7%
48 | Cc1ccc(-n2c(O)c(C=Nc3ccc(Br)cn3)c(=O)[nH]c2=O)cc1 | inactive: 103%
49 | O=C(O)C1C2CC3CC(C2)CC1(n1ncc(N2CCC4(CC2)OCCO4)c(Cl)c1=O)C3 (configuration not stated) | inconclusive: 128%
50 | CCC(=NCc1ccco1)c1c(O)n(C)c(=O)n(C)c1=O | inconclusive: -26.6%
51 | O=C(NCCN1CCOCC1)c1ccc(Cl)nc1 | inconclusive: 116%
52 | CC(=O)OC1N=C(c2ccccc2Cl)c2cc(Br)ccc2N(C)C1=O (configuration not stated) | inconclusive: 257%
53 | Cc1ccccc1-n1c(O)c(/C=N/N2CCOCC2)c(=O)[nH]c1=S | inactive: 138%
54 | Cc1[nH]c2ccccc2c1C(=O)C(=O)N1CC2CC(C1)c1cccc(=O)n1C2 (configuration not stated) | inactive: 105%
55 | CN1C(=O)C(=Cc2ccc(N3CCCCCC3)cc2)C(=O)N(C)C1=O | inconclusive: 85.9%
56 | O=c1c2ccccc2nc(/C=C/c2ccc(F)cc2)n1-c1ccccn1 | inconclusive: 261%
57 | Cc1nc2c(c(=O)[nH]1)C(c1ccc([N+](=O)[O-])cc1)c1c(c3ccccc3oc1=O)O2 (configuration not stated) | inconclusive: 114%
58 | CN(C)C(=O)O/N=C(\N)COc1ccc(C(C)(C)C)cc1 | inconclusive: 73.4%
59 | CN=C(SCC(=O)c1cccc(Cl)c1)c1c(O)n(C)c(=O)n(C)c1=O | inconclusive: 77.2%
60 | O=c1[nH]c(O)c(/C=C2/C=CC(c3cc(Cl)ccc3Cl)=N2)c(=O)[nH]1 | inconclusive: 93%
61 | COc1ccccc1N1CCNCC1 | inconclusive: 88.5%
62 | O=c1[nH]c(=S)[nH]c(O)c1N=Nc1ccc(S(=O)(=O)N2CCOCC2)cc1 | inconclusive: 381%
63 | CC(C)NS(=O)(=O)c1ccc(OCC(=O)N2CCN(C)CC2)cc1 | inactive: 130%
64 | O=C(O)c1ccc(N=Cc2c(O)n(Cc3ccc(F)cc3)c(=O)[nH]c2=O)cc1 | inconclusive: 109%
65 | O=C1C2CCCN2C(c2cccnc2)N1c1nccs1 (configuration not stated) | inactive: 93.9%
66 | Cc1cccc(N2C(=O)NC(=O)/C(=C/c3ccc(N4CCOCC4)cc3)C2=O)c1 | inconclusive: 73.4%
67 | O=c1[nH]c(O)c(Cc2ccc3c(c2)OCO3)c(=O)[nH]1 | inconclusive: 81.7%
68 | CCN(CC)C(=O)c1ccc(NC(=O)c2cccc(C(F)(F)F)c2)cc1 | inconclusive: 98.3%
69 | COc1ccc(C2CC(c3c(O)n(CCc4ccccc4)c(=O)[nH]c3=O)=NN2)cc1OC (configuration not stated) | inconclusive: 352%

Row | SMILES | binding response (% of control)
70 | CN(C)c1ccc(C(=O)N/N=C/C23CC[C@@H](O)CC2(O)CC[C@@H]2[C@@H]3CCC3(C)C(C4=CC(=O)OC4)CCC23O)cc1 (some centres not stated) | inconclusive: 93.3%
71 | O=C(NC(Cc1cnc[nH]1)C(=O)O)c1ccccc1 (configuration not stated) | inconclusive: 108%
72 | O=c1c2ccccc2nc(-c2ccco2)n1-c1cccnc1 | inactive: 100%
73 | Cc1cc(C(=O)O)c(C)n1C1CC1 | inconclusive: 93.5%
74 | Cn1cc(C(=O)N2CCOCC2)c2ccccc21 | inconclusive: 100%
75 | CCC(CC)C(=O)NC1CCSC1=O (configuration not stated) | inactive: 88.1%
76 | C=CCn1c(O)c(C=NCCN2CCOCC2)c(=O)[nH]c1=S | inconclusive: 96%
77 | COc1ccc(C(=O)C2(C)N(O)C(C)C(c3cccs3)=[N+]2[O-])cc1 (configuration not stated) | inactive: 96.5%
78 | OC1C2CN3CN(C2)CC1(c1ccccc1)C3 (configuration not stated) | inconclusive: 77.2%
79 | COc1ccc2c(c1)NP(=S)(Oc1ccccc1)N2 (configuration not stated) | inconclusive: 895%
80 | CCN1C(=O)N(CC)C(=O)C2(Cc3ccccc3N3CCN(c4ccccc4)CC32)C1=O (configuration not stated) | inconclusive: 98.8%
81 | CC/C(=N\NC(=O)c1ccccc1)c1c(O)n(Cc2ccccc2)c(=O)[nH]c1=O | inconclusive: 14.5%
82 | O=c1[nH]c(O)c(N=Nc2ccc3c(c2)OCCO3)c(=O)[nH]1 | inconclusive: 113%
83 | CCCCn1c(N)c(N(CCOC)C(=O)CN2CC=C(c3ccccc3)CC2)c(=O)[nH]c1=O | inconclusive: 93.4%
84 | COC(=O)C1=C(N)Oc2cc(C)oc(=O)c2C12C(=O)Nc1ccccc12 (configuration not stated) | inactive: 105%
85 | S=C1CN=C(c2ccccc2Cl)c2cc(Cl)ccc2N1 | inactive: 94.2%
86 | CN1CCC2(O)OCCCC2C1 (configuration not stated) | inconclusive: 58.6%
87 | NC(=S)c1cn(C2OC(CO)C(O)C2O)c2ncnc(N)c12 (configuration not stated) | inconclusive: 101%
88 | NNc1n[nH]c(=S)n1N | inconclusive: 306%
89 | CC(=NCC1CCCO1)c1c(O)n(C)c(=O)n(C)c1=O (configuration not stated) | active: 30.7%
90 | Cn1cc(C(=O)NCc2ccccc2)c2ccccc21 | inconclusive: 116%
91 | CCOP(=S)(OCC)c1ccc(N(C)C)cc1 | inactive: 116%
92 | CCC(=NCC1CCCO1)c1c(O)n(-c2ccccc2C)c(=O)[nH]c1=O (configuration not stated) | inconclusive: 59.1%
